# Data: paper PMC10941009, “Structural basis for specific DNA sequence recognition by the transcription factor NFIL3” (The Journal of Biological Chemistry, 2024)
# Amino acid sequences for entries named in this document (tags omitted). Residues count along the entry.
# UniProt Q16649, 65-161: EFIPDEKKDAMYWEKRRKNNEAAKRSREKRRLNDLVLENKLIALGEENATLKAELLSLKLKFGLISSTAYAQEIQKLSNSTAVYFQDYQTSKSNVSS
# UniProt P35638, 88-162: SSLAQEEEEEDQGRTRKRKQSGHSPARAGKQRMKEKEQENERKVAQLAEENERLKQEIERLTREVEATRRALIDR
# For some of these results: Negatives hold for the conditions tested. For some of these results: At least one verdict was read from the data and is not stated in words by the source. For some of these results: Weaker means in comparison with the reference protein, sequence or condition of that experiment.
# Experiments:
# [1] = molecular target: NFIL3 bZIP (long) (human) (UniProt Q16649); assay: ITC; details: WB: heat too low to fit; ITC: 20 mM Tris pH 7.5, 150 mM NaCl, 25 °C; recombinant protein; residues 65-161; protein details: His6-SUMO removed by TEV
# C/EBPζ bZIP (human) = C/EBPζ bZIP (human) (UniProt P35638); assay: EMSA; details: 6-48 uM protein; EMSA: same buffer, 4 °C, 6% native gel in 0.5x TBE; recombinant protein; residues 88-162; protein details: His6-SUMO removed by TEV; label: 5' FAM
Sequence,binding result [1],binding result (C/EBPζ bZIP (human))
CACCGCGCGGTG (double strand) [ccgCGcgg],binds more weakly,
CACCGTACGGTG (double strand) [ccgtacgg],binds more weakly,
CATTGCGCAATG (double strand) [FAM-TTGCGCAA],,no binding
GATGATGTAATC (double strand) [FAM-TGATGTAA],,no binding
